Consider 1 compound from US20200215537A1, “ULTRASENSITIVE CANTILEVER” (3P SENSE LIMITED, priority 2017, published 2020).

The data set has as its system vancomycin susceptible receptor (VSR). Description: Cantilever binding assay, vancomycin against VSR coated cantilevers. Particulars: 70 μm wide cantilevers. On the procedure:
In the case of preparation of unpassivated cantilever, SAMs of D-VSR, L-VSR and inert PEG molecules were diluted to a concentration of 1 μM in pure ethanol. The diluted SAMs were individually injected into glass capillary tubes (King Precision Glass, Claremont, Calif., USA) which were arranged on the functionalization stage. The cantilevers were then functionalized by incubating them with individual SAMS inside the glass capillaries for 20 min. Care was taken to ensure that the hinge region was entirely covered with the SAM solution in order to ensure mechanical connectivity between the transduction arrays and hinge region.
The finding that a signal response is detectable even when the assembling of array networks is confined to only 30 μm of the geometrical width of the region covered while the corresponding geometeric length is fixed at 500 μm of the cantilever, prompted us to examine whether changing the dimensions of the cantilever itself whilst maintaining the mechanical connectivity of surface receptors has any impact on the signal sensitivity and reproducibility. […] This particular system was chosen because it gives relatively large signals and it has been previously shown that the quantitative Van-VSR binding constants can be measured^21 and so it can be used to redefine the limit of recognition of biologically relevant systems. […]

The structures appear in SMILES notation.

Turning to `CN[C@H](CC(C)C)C(=O)N[C@H]1C(=O)N[C@@H](CC(N)=O)C(=O)N[C@H]2C(=O)N[C@H]3C(=O)N[C@H](C(=O)N[C@H](C(=O)O)c4cc(O)cc(O)c4-c4cc3ccc4O)[C@H](O)c3ccc(c(Cl)c3)Oc3cc2cc(c3O[C@@H]2O[C@H](CO)[C@@H](O)[C@H](O)[C@H]2O[C@H]2C[C@](C)(N)[C@H](O)[C@H](C)O2)Oc2ccc(cc2Cl)[C@H]1O` [Van, vancomycin], the detection limits was found to be 7e-10 g/mL. The “signal-to-noise ratio (SNR)” value (500 pM Van) was found to be 7.
